Results on 104 sequences are retold here after PubChem BioAssay AID1347423 (Functional Genomics Laboratory (NCATS/FGL), 2020).

In all, about 52,000 sequences went through this assay and about 210 (0.4%) were called active.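 How the source made its calls: active means gene whose silencing raises cell survival under the drug, median off-target-corrected z-score across its silencing RNAs 2 or more; inactive means the rest.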 This is one part of the list.

The assay is described as follows: Resistance to Poly (ADP-Ribose) Polymerase inhibitor: Gene Identification via Genome-wide siRNA Screen. Conditions: mouse BRCA2 R2336H ES cells, olaparib, CellTiter-Glo viability; hits give high values. The procedure, abridged:
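Genome-wide siRNA screen (3 siRNAs/gene, 20 nM) in mouse ES cells carrying hypomorphic BRCA2 R2336H; olaparib 500 nM added 48 h post-transfection, CellTiter-Glo viability 72 h later. Normalized to plate-median negative control; MAD z-scores, gene median, seed-adjusted.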
On the technique in general: ATP-based viability assays read luminescence as a measure of living cells.
As to GGAUUCUGCUAGCAGUUCATT against Csng, the z-score was inactive: -3.24. To GGACUCCCUUACUUUAUUATT against Mertk belongs inactive: 0.525. In the case of “GGUAACAGUCCUGAAAUACTT against 2010321J07Rik” it was inactive: -0.351; in that of GCCUAACCUGCAUCAGUCATT against Olfr689, inactive: 0.358; in that of GGCUACGCUGACUAUGUCUTT against Creg, inactive: 0.619. As to GGUAGCUAAGAAGUUUAUUTT against Dck, the z-score was inactive: 0.358. In the case of CCCGUCCUCUCAAAAACUATT against Bcl2l14 it was inactive: 0.021; in that of UGUGACUAUUGUUACUGUGTT against Olfr1512, inactive: 0.039; in that of GGCAGAGACAAAGAAACUUTT against Trap1, inactive: -0.655.

Regarding “GCAUUGUAAGUUGAAAACATT against 0610033I05Rik”, the z-score is inactive: 0.449. In the case of GCCGUCACAAGAACUGAACTT against D10Ucla2 it was inactive: -1.28.

Take GAAUUACACACAGGCCUGATT against Olfr1048: the z-score was inactive: -0.664. In the case of GGUGAGGACCAAAAGCUGGTT against Plcd4 it was inactive: 0.327; in that of “GCCAGCAAAAGACACAAUATT against 2610028F08Rik”, inactive: -0.399. In the case of “GGAUCACUAUUGCUCCCAUTT against 4930432K21Rik” it was inactive: 0.25; in that of “CCGUAAGUCUCGGAUCUCCTT against A330045H12Rik”, inactive: 1.38; in that of GCUAUAGGGACCUCUGUCATT against Cdh5, inactive: -2.38. In the case of CGAUGCAAAAAGAAUAGACTT against Mark1 it was inactive: -0.143. Consider GCAACCGAAUUUUACCUCUTT against Olfr820, for which the z-score was inactive: 0.0806. To “GGAUUACGGUGGGAUCAUGTT against 6230409E13Rik” belongs inactive: -2.86; to GGUUUUCAAAAGUGGAGAATT against Ubr1, inactive: -0.766; to GACUGGGUAACCCAUCCCUTT against Srd5a1, inactive: -0.254. To AGAACAGCUACUUUCUGACTT against Cebpe belongs inactive: -0.29; to CCUCGUGUUAUGCAUGGAATT against Kitl, inactive: 0.503; to “GCAGGUGCCAACAUUAUUGTT against 0610039C21Rik”, inactive: 1.5.

Turning to GAGGUUUAUUGUAAUGGCUTT against Olfr1271, the z-score was inactive: 0.924.

As for “GGAGCAACACUUGCGUACUTT against 1810009O10Rik”, the z-score is inactive: 1.61. Turning to CGGGAUCUUAGAAGAGCAATT against Ptpre, the z-score was inactive: 0.964. With GCAGGACAAAUUGGUUGUGTT against Olfr457, the z-score is inactive: -1.01.

Turning to “CCUGAUCUUAAACAAAGAATT against 2610507B11Rik”, the z-score is inactive: -0.942.

Take CGACCUAUUAGAGAGCAACTT against Zfp248: the z-score was inactive: 1.08.

On to GCAGACAGAUCGCUUCAACTT against Dok4, for which the z-score was inactive: 0.045. To UUCCUCAAUGCUUCCAUUUTT against Olfr1454 belongs inactive: 1.06; to CGUUCUUCAGCUAUUCAUUTT against Slc37a3, inactive: -1.66. To GCUGAUGUAUGGAAUGCUCTT against Trappc1 belongs inactive: 0.506.

Regarding GGACUGUGAUCAGGUUUGUTT against Elk3, the z-score was inactive: -1.36.

On to GGGCUAAAGAAACAAUCCCTT against Gpr2, for which the z-score is inactive: -0.131. In the case of GGAUCAACAUCAGAGUUCUTT against BC031441 it was inactive: -0.0531; in that of GCUUCCUCUAUUCGAUUUUTT against Rab6ip1, inactive: 0.187. To CCGAAUCCUUAAAAUCUGCTT against Zfp78 belongs inactive: -0.186; to GGCAUUAAGUGCUUGCUCATT against AI837181, inactive: -1.25. To GCUACAGAAUCAUACGAUGTT against Zfp521 belongs inactive: -0.234. Turning to GGUAUCUCUACCUCGAGGATT against Cdk4, the z-score is inactive: 0.825. In the case of CCAAAAUCGGGAAAGGAAATT against Ldb2 it was inactive: -0.682. For GCGUGUCCCUUCAGUUUGUTT against Zfp96, the z-score is inactive: 0.122. In the case of CGAUAAUGAAAGUGACCAUTT against C80913 it was inactive: -0.176. To “GGCCCAACCUUGGAUCUUUTT against 0610006K04Rik” belongs inactive: -0.704; to GGUAUAAUUGGAAUUGUGATT against Morc, inactive: -0.367; to CCAUAUCGAGUACCUCCAATT against Rtn4rl1, inactive: -1.43.

As to GGUGCUGCCCUGUCUAUUGTT against Gm587, the z-score was inactive: -0.0762. To GCUUGCUCUAUUGCCAAUATT against Crem belongs inactive: -0.0675; to GCUCCUGUGAUUGAUGCAGTT against Dnchc1, inactive: -0.899.

Consider GCUUGGGUUCAGUGUGAAGTT against LOC547343, for which the z-score was inactive: -1.12. As for GGACUUUUACCAGUUCUCCTT against Ece2, the z-score is inactive: 0.967. In the case of GCAUUAAAACUUCCUUUUGTT against Ubl3 it was inactive: 0.603; in that of GCUCGUUCUGAAGAUAAGUTT against C80587, inactive: 0.133; in that of GCUGUAAGCAGUCCAAAUATT against Kdelr3, inactive: 1.13. In the case of GCUGGUUUCUUAUAGGAAGTT against Dnmt3b it was inactive: 0.069; in that of GGACUUCUAUCCACUCACGTT against Helz, inactive: -1.39.

GGUAUGUCUGUAACUCUGGTT against Il15ra: the z-score is inactive: 1.27.

For the sequence GCGUGAGCUAAUGUUCACATT against Agpat2, the z-score was inactive: -1.04. In the case of “GGUCAUCUCCAGAUACCCATT against 6330406L22Rik” it was inactive: 2.52. For the sequence “GGAGAACAAGUGUCUGCUUTT against 9430079M16Rik”, the z-score is inactive: -2.12.

On to GGUACAGAUCUGGUCCUACTT against Il17rc, for which the z-score is inactive: 1.47. Consider “GGAGUGCUUUUAAAUCCCUTT against 1110037N09Rik”, for which the z-score is inactive: -0.954. As for CGUAUUCCAUGGUUUCCUATT against Whrn, the z-score was inactive: -0.24. To GGAGAUUGAACCAAAGCCUTT against Smpdl3b belongs inactive: -0.0281. To GCAGACGACAAGUUCUACATT against Ckap1 belongs inactive: 0.0961; to “GGUUCCUUAAUUUAUUGCCTT against 1110004B15Rik”, inactive: 1.02. In the case of “CCCUGCUGGUUGGUAAUCATT against F830005K03Rik” it was inactive: -1.63; in that of GUCAUCACAAGUCAAGAAGTT against Muc10, inactive: 0.929; in that of GAUCAUCCAGCUGAAGCAGTT against Mafg, inactive: 0.437.

Consider CCCGGCCACUGUUAUGAGATT against BC056474, for which the z-score was inactive: -0.0911. GGAAACUACUCCAUGGUGATT against Olfr967: the z-score is inactive: 1.83. In the case of GCAAUGGACUGACAUGUCATT against AI481750 it was inactive: 0.766; in that of CGUGCUAAACCAAGACUUATT against Lyplal1, inactive: -0.816.

Take “GGAAUGUGAAGAAGAAAUUTT against 4930588M11Rik”: the z-score is inactive: -1.84. In the case of “GGUUGUACCUACAACAGAUTT against 1810011K17Rik” it was inactive: -0.0264; in that of CGAUUUCAGCUUAAAGCACTT against Lmo3, inactive: 1.44; in that of GGCAGAGAGCAACUAUAUUTT against C1galt1, inactive: 0.0809. On to GGAGGAUGAAGGCCAUUCATT against Hnrpd, for which the z-score was inactive: -1.79. In the case of “GGAGUAAAUUGAGAAACCATT against C730027J19Rik” it was inactive: -0.154. In the case of CCCUACACAGAUCACCUAATT against G0s2 it was inactive: -0.45.

In the case of “GGCAUACCGGAAACUUGCCTT against 1700014P03Rik”, the z-score is inactive: -0.0223. To GGAUUGAGUGACGACUGACTT against Nova2 belongs inactive: -1.63; to GGCUGAAAUUGAACAGUACTT against Atp6v1g1, inactive: -1.72. To GGAGGUCACACAUUCUGUGTT against Itgb7 belongs inactive: 2.29; to GCCUGAGGAUCUAUAGAUATT against Isp2, inactive: 1.01. In the case of CCACUCUGAGAUAUCUGAATT against Olfr1277 it was inactive: 0.401; in that of GCGAAACAGACACUUCGGUTT against Dlg7, inactive: -0.497. For GGUAUAAAGCAUGAGUAUCTT against Dstn, the z-score is inactive: 0.389. With “GGUUACCACACUAUGUUACTT against 1810061M12Rik”, the z-score is inactive: 0.116. To GGGAUGUAUUAGUGAAAGGTT against Dm15 belongs inactive: -0.213; to GAAAUGUCCAUCCAAAAGCTT against Sprr2k, inactive: 0.579. In the case of GCUGAGUGCCAAGAUUAUATT against Gnpda1 it was inactive: 0.731. To GGAUUCUGGUGCUUUCCAGTT against Ptk7 belongs inactive: 0.225. As to CCAUCUUCAGCAGUGGAAATT against Rph3al, the z-score was inactive: -0.959. To GGAUCGCUCAUGGAUAUUUTT against Fus belongs active: -0.22.

Take GCAUCCUAGCAGAGAUUUATT against Pla2g1br: the z-score was inactive: 1.71. In the case of GGCUUGAUUUAUGAAUGUATT against Cacnb2 it was inactive: -2.09; in that of GGACAAAAUCUUUGCUCUATT against Olfr1184, inactive: -0.14.

As for GCUCAACCGUAACAUCCAGTT against Krt2-39, the z-score was inactive: 0.188.

For the sequence GGUCGAAGAGGAAGUAAACTT against Tnfsf5, the z-score was inactive: -0.5. In the case of GCUAACUGAGCUGCCGGAATT against Lrrn3 it was inactive: -0.552.
